In PMC6224402:
No constants are given. Whether binding was seen depends on the method and setting. Binding seen in cells or lysates may run through a third protein. Some entries that bind do so weakly or less than the wild type. For part of these data: Sequences can lack the tags named with a protein.

Sequences of proteins named here, by UniProt entry; tags and fusion partners are left off. A change or cut given only in a name is not applied to a line headed by its entry.
UniProt Q9P1W9: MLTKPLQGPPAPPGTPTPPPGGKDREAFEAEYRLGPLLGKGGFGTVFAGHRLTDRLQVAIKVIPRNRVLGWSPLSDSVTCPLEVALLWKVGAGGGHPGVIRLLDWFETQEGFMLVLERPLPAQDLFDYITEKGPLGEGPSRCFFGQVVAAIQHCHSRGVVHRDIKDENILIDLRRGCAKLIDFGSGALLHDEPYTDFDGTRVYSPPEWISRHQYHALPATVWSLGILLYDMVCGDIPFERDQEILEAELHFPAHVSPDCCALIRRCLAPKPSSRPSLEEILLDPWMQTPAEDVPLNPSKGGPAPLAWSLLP

Tests used:
[1] = target: T1, HA-tagged HK2 (Hexokinase-II) (human) (UniProt P52789); assay: co-IP; HEK293T cells overexpressing tagged proteins; IP buffer lysate; immunoprecipitation with anti-HA or anti-Flag antibody, immunoblotting
T1 sequence: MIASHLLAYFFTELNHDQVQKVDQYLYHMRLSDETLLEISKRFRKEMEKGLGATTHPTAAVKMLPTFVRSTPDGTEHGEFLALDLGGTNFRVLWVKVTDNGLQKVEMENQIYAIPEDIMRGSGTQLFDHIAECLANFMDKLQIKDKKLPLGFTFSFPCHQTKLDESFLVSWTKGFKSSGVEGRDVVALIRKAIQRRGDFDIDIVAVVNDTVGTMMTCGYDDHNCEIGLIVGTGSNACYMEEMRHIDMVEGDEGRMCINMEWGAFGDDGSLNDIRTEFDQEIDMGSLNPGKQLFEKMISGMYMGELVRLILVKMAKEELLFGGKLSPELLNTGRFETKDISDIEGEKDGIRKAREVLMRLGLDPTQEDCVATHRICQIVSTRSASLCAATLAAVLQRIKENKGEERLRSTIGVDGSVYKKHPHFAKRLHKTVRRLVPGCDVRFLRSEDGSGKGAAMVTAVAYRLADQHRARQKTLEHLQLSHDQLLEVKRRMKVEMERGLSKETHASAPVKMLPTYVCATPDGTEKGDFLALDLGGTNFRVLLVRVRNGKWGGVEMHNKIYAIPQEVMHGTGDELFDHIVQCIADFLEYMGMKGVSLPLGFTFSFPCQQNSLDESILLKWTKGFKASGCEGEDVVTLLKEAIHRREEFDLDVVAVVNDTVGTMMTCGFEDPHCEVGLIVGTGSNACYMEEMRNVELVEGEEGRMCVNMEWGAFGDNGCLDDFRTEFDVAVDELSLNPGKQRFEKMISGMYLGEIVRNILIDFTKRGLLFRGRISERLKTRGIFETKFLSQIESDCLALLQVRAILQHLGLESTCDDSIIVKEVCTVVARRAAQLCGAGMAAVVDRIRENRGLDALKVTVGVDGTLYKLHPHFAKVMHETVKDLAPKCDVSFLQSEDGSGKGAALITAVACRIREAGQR

[2] = target: T2, endogenous HK2 (human (endogenous in MCF-7)) (UniProt P52789); assay: co-IP; endogenous proteins, MCF-7 cell lysate; immunoprecipitation with anti-PIM2 or anti-HK2 antibody, immunoblotting
T2 sequence: T1 sequence

## Flag-tagged PIM2 (Proviral Insertion in Murine Lymphomas 2) (from UniProt Q9P1W9 1-311) (enzyme)
[1]
  binding: binds

## GFP-tagged PIM2 (33–286) (from UniProt Q9P1W9 33-286) (domain or fragment)
[1]
  binding: binds

## endogenous PIM2 (from UniProt Q9P1W9 1-311) (enzyme)
[2]
  binding: binds
